Experimental findings from patent US20120122958 are described below.

The chains behind the UniProt entries cited, without tags or fusion partners.
UniProt Q6NUN9, whole entry C571A: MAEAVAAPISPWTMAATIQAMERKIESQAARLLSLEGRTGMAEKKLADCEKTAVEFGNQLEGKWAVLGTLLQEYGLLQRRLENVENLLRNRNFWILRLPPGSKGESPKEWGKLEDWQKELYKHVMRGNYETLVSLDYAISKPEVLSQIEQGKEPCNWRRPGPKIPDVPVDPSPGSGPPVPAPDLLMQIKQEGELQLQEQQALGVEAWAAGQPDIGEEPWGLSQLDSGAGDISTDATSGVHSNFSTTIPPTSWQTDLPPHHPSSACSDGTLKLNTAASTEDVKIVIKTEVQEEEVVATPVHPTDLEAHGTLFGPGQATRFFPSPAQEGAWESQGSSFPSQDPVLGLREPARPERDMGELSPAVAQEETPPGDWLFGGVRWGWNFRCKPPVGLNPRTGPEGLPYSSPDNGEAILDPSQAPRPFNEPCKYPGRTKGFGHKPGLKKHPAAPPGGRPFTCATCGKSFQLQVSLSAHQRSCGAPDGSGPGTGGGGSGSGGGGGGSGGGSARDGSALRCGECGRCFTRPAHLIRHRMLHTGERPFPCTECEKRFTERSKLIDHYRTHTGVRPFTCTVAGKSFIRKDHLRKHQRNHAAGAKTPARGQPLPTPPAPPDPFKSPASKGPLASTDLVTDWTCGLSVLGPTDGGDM

The comparison behind a weaker result is the experiment's own reference, which may not be listed here.

This data set concerns the target PARIS C571A (Homo sapiens) (UniProt Q6NUN9). The data set can be described thus: EMSA. The following applies: substantially reduced binding; purified recombinant protein; protein details: GST; label: 32P. (In general: Mobility shift assays separate free from complexed probe on a gel.)

For “ACATACAGGCTATTTTGTTGATTAAAC (double strand) [IRS2-WT]”, the binding result is given as “binds more weakly”.

“AGTGTGTTGGTATTTTTCCCTCAGTTC (double strand) [IRS1-WT]”: the binding result was “binds more weakly”.

With “GCCACTTGCTTGTTTTGGAAGGAAAAT (double strand) [IRS3-WT]”, the binding result is reported as “binds more weakly”.
